The text below walks through data of PubChem BioAssay AID1347423 (Functional Genomics Laboratory (NCATS/FGL), 2020).

Among all 52,000 sequences or so, about 210 (0.4%) were called active.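 Rule for the calls: active = gene whose silencing raises cell survival under the drug, median off-target-corrected z-score across its silencing RNAs 2 or more; inactive = the rest.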 This is one part of the list.

The experiment in a line: Resistance to Poly (ADP-Ribose) Polymerase inhibitor: Gene Identification via Genome-wide siRNA Screen. The following applies: mouse BRCA2 R2336H ES cells, olaparib, CellTiter-Glo viability; stronger effect = higher value. In a few lines:
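Mouse BRCA2 R2336H ES cells were reverse-transfected with siRNA (20 nM final), treated at 48 h with 500 nM olaparib, and read by CellTiter-Glo after 72 h. Scores: MAD-based z per siRNA, median per gene, seed off-target correction.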
For orientation: Cellular ATP, detected with luciferase, serves as a proxy for viable cell number.
Regarding GCCUAACCAACAAUUCUACTT against Oas1b, the z-score is inactive: 0.742.
On to “GGCAUUGUUUCAGUAUUGUTT against C030019I05Rik”, for which the z-score is inactive: 0.414.
With GGUGCUGUCCAUGGUGAAGTT against Siat8e, the z-score is inactive: -0.121.
For GGAGUCAAAGCUCUUUAUUTT against Pitpnb, the z-score is inactive: 0.375.
As for GCACAAUGACGCACUUACCTT against Pik3r2, the z-score was inactive: 0.377.
With GGGACACCUAUUUUAUCCATT against Lrp12, the z-score is inactive: 1.45.
In the case of GGAUAUAAACCUCAUCCAATT against Mrgpre, the z-score is inactive: -0.163.
As for “GGACUCUUACCACAUAAUGTT against 1110059E24Rik”, the z-score was inactive: -0.0894.
Regarding CCAUACAAAAAGCUUAGACTT against Slit2, the z-score was inactive: 0.215.
As for GAAGAAACGGCACAGCAAGTT against Egr4, the z-score is inactive: 0.0235.
For CCGUGUUACUAUACUCUGUTT against Pabpn1, the z-score is inactive: -2.78.
Turning to “GGCUGUGUUAAGACCUUAATT against 4930583H14Rik”, the z-score is inactive: -2.65.
For GGGCAUUAGGGUGGUAGCATT against Gapds, the z-score was inactive: -2.42.
Turning to GGUACACUGAGUCUGGAAGTT against Lsm11, the z-score was inactive: -0.196.
With GGAGAAUGCAAACAUCUCUTT against Slfn2, the z-score was inactive: 1.21.
As for GGUAAUGGGAGCUUUUGGGTT against V1re3, the z-score is inactive: -0.166.
As for CCUGUUACCCUAUAUUUUGTT against V1rg12, the z-score is inactive: 1.23.
With CCGACGUGUUUGUUGUUGGTT against Gtf2i, the z-score is inactive: -0.858.
On to CCAAGCCGCUGAACAAUUUTT against Rnase6, for which the z-score is inactive: 0.702.
To CGAUGCUAGAGAUUAAUCATT against Rdh10 belongs inactive: -0.642.
To “CCUUACCCAGCAAUAAAAATT against 1700023E05Rik” belongs inactive: 0.819; to “CCCAAUAAAAUAUCACCAGTT against 1700074P13Rik”, inactive: -1.73; to “GGCUCAGGACAAUGACUUCTT against 2010005J08Rik”, inactive: 0.687.
GGCCUCAGCAUUUAUCUGGTT against Rtcd1: the z-score was inactive: -0.49.
With CCAGUGUAAGUUUGAUCAUTT against Zc3hdc8, the z-score is inactive: -0.0456.
As for GGUCUUACCCUGCCAGCAUTT against Sh3md2, the figure is inactive: -0.915.
GGUUCUGAACAAAAAACUCTT against Pola2: the z-score is inactive: 0.0387.
With CCUACAGGAUCAUAGUUAATT against Nicn1, the z-score is inactive: -0.49.
As for GGAGAUAUUCCAGAUCUUUTT against Picalm, the z-score was inactive: 0.79.
Regarding GGGUUCUGCUAUGUUAAUGTT against Hdac2, the z-score was inactive: 0.712.
For the sequence GGAAAUACAAGUGGAAUUGTT against Agxt2l1, the z-score is inactive: 0.112.
Regarding GGUUAUGGACAUUCAUGCCTT against Mrg1, the z-score is inactive: 0.908.
Regarding “GGUGCUGUGUGAGCUUUCATT against 4930441O14Rik”, the z-score was inactive: -0.511.
Regarding GAUGUGGGUUUUCUCUAACTT against Ly6g6c, the z-score is inactive: -0.0431.
For the sequence “GGCUUUCAGUAAGAAGAUGTT against E130307J07Rik”, the z-score is inactive: -0.0144.
As to CCUUAUGUCCCUAAGGCUATT against Mbd3, the z-score was inactive: 0.9.
As for GGAGCUGAAGCCAUUCAACTT against Gpx6, the figure is inactive: 1.76.
To “GCCUUUGAUAAAAGUCCGGTT against D030069K18” belongs inactive: 1.14; to GGGCGAUGGAAAGCCUUUUTT against Olfr354, inactive: -0.748; to “GUUUUCUUGAGACAGUUAATT against 1810008A14Rik”, inactive: -0.106.
For GGUGGGAAAAAACAUAAGGTT against BC035537, the z-score was inactive: 0.352.
To CGGGCUCAGGUAAAACUCUTT against Ddx31 belongs inactive: 0.908; to GGAGAUGGAUUCCAAGGUATT against Rnf40, inactive: -1.14; to GGUUUGAUGAGAAGAAACATT against Mmp3, inactive: -1.26.
With GGAAAAGAAAAGGGCGGGCTT against Tgfbr2, the z-score is inactive: -0.616.
Take GGUCUUUGAGGAAAGAGGUTT against Hemk1: the z-score is inactive: -0.22.
Take GGUUCAGAACGGAAGUGGCTT against Tnfrsf18: the z-score was inactive: -1.39.
In the case of CGUUUUGUAUAUAUCUGACTT against Utx, the z-score is inactive: 0.483.
Regarding “GCAUGGAGUGUGCAUUCCATT against D8Ertd325e”, the z-score is inactive: -1.55.
Turning to “GGACUUGCCUCCAGAAAAUTT against 0610041E09Rik”, the z-score was inactive: 1.
Regarding GGAGAACAGUCUUGAGAAATT against Crisp3, the z-score is inactive: -0.805.
To GCGAAUGAAUUUUCCCAUATT against ORF34 belongs inactive: 1.01.
As for CCUCAUUGGUUUGACCCAGTT against Hsd17b9, the figure is inactive: 0.385; as for GGUUUCAGGUUGAAGACCATT against Pold2, inactive: -0.706.
To GGUACUUUACGAACAUCUGTT against Sall1 belongs inactive: -0.857; to GGAGAGCUUGUUCAAGUGCTT against BC003332, inactive: -0.877.
Regarding GGCAGAUAAGAAAAAUCCUTT against 9.83E+24, the z-score was inactive: 1.11.
Turning to GGCGUAUGUUUGUUGGUUGTT against Sertad3, the z-score was inactive: 0.807.
As to “CGUCCUCAGGCAAAUGACUTT against 5730407K14Rik”, the z-score is inactive: -1.46.
With “GUGGCAGAAAACACUGCCATT against D11Ertd99e”, the z-score was inactive: -0.512.
With GGAGCAAGUGAUGAUGACCTT against Pkp1, the z-score is inactive: -1.01.
In the case of “GGAACUAGAGUCUCAAGUATT against 2610206B13Rik”, the z-score is inactive: 1.1.
Consider GGAAUGUGCGGAAGACAUATT against Gfer, for which the z-score is inactive: 0.244.
In the case of GGUUGUUCAUGAGCCGAACTT against Rpl18, the z-score was inactive: -3.01.
Take GCAUCGCAUAUUGGAAUGCTT against Lim2: the z-score is inactive: 0.395.
With GGUGUGCGUCACCAAAAAATT against Rgs19ip1, the z-score is inactive: 0.0333.
